The text below walks through data of patent US20130102535A1, “Method for Preventing Myocardial Ischemia” (Shanghai Bajiayi Pharmaceutical Science and Technology Co. …, priority 2009, published 2013).

The data set deals with rat myocardial ischemia models induced by coronary artery ligation. In words: Myocardial infarction area of rats after coronary artery ligation (N-BT staining). Conditions: 5 hours after coronary artery ligation, x ± SD. Type of data set: in vivo, Sprague-Dawley male rats. The text has this: Sprague-Dawley male rats of clean grade weighting 200-220 g were supplied by the animal experimental center of the Second Military Medical University (license number: SCXK (Shanghai)-2007-0003). • 2.1.2 Experimental groups
Experimental rats were randomly divided into four groups: sham group: n=8, model group: n=9, MLIF low-dose group: n=11, MLIF high-dose group: n=12. The dose of medicine could be administrated according to rat body weight. MLIF low-dose group and MLIF high-dose group were administrated by tail intravenous injection prepared with normal saline as solvent at the dose of 0.15 mg/kg and 0.5 mg/kg, respectively. • 2.1.3 Coronary artery ligation and measurement of myocardial infarction area of rats
The Sprague-Dawley male rats were abdomen anesthetized with 25% urethane (0.4 ml/100 g) and fixated at supine position. The chest was cut open among the fifth rib at left, and then the fourth and fifth ribs were cut off along the left side of sterna at 2 mm. The pericardium was snipped off with heart exposed, and a 0/3 suture line was passed through the left anterior descending coronary artery. The rats were administrated by tail intravenous injection slowly. After 10 minutes, the left anterior descending coronary artery was ligated rapidly and the heart was returned to its chest, removing the air within the thorax by hand, closing the thorax and tightening the purse-string suture rapidly. The entire process of opening and closing chest was performed within 30 seconds. The coronary arteries of rats of sham group were not ligated since the myocardial ischemia would be caused by coronary artery ligation.
The rats were administrated by tail intravenous injection with the dose of 0.15 mg/kg (MLIF low-dose group) and 0.5 mg/kg (MLIF high-dose group) at 15 minutes after coronary artery ligation with the same volume of normal saline administrated in sham group and model group. Each group of animals was executed at 5 hours after coronary artery ligation. The heart was taken out and the heart ventricle muscle was transversely chipped into 5 slices, the cut position of which was parallel to coronary sulcus under the coronary artery ligation line. The five slices of the heart ventricle muscle were stained with Nitroblue tetrazolium (N-BT) for 15 minutes with shaking. […] The area of myocardial infarction was isolated by a dissecting microscope and the whole heart weight, the left ventricle weight and the area of myocardial infarction weight were weighed, respectively, the percent (%) of area of myocardial infarction weight to whole heart weight were quantified as an measure on myocardial infarction area ranges. • 2.1.4 Data and statistics analysis
All experimental data are given as x±SD. Differences between the groups were calculated by analysis of variance (SPSS 10.0).

[1] abbreviates: MLIF high-dose group 0.5 mg/kg tail i.v.
Where [2] appears, read: MLIF low-dose group 0.15 mg/kg tail i.v.

Under setting [1], Met-Gln-Cys-Asn-Ser (MQCNS) [MLIF] showed a left ventricle weight of 526 ± 31.5 mg and a whole heart weight of 779 ± 51.2 mg. In addition, under setting [2], the left ventricle weight came out at 566 ± 48.1 mg and the whole heart weight is 832 ± 63.5 mg.
